PubChem BioAssay AID743121 | NCATS, 2013
Aim: 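Partners whose loss is lethal together with topoisomerase I blockade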 (primary screen). Cell system: MDA-MB-231 cells, a human breast cancer line. Reagent: single siRNA against human genes, 20 nM siRNA (0.8 pmol per well). Timing: 120 h (drug added 48 h after transfection, read 72 h later). Challenge: camptothecin 20 nM (about EC30) for 72 h; vehicle 0.1% DMSO in parallel plates. Detection: 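CellTiter-Glo ATP signal, scaled to control siRNA as percent viability; sensitisation given as log2 of untreated divided by camptothecin-treated viability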. Reading the numbers: log2 vehicle/camptothecin viability: higher = stronger sensitisation to camptothecin; viability with camptothecin: higher = more viable cells. Rule for the call: 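Each gene scored by redundant siRNA activity (RSA) over its individual siRNA ratios; a gene is called active at p < 0.001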.
This is one part, drawn at random, of about 26,000 reagents. 167 of all reagents (0.63%) count as active. 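Calls are per gene from RSA p-values that are not deposited; an individual active-marked siRNA can sensitise only weakly.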 A number with no mark means an inactive call. The numbers tell different reagents against one gene apart. Further read-outs or replicates are left out here. Reagent sequences are not shown.

target | reagent no. | log2 vehicle/camptothecin viability | viability with camptothecin (% of control)
RAD54L (RAD54 like) | 1 | -0.461 | 63.9
RAD54L (RAD54 like) | 2 | -0.106 | 88.6
RAD54L (RAD54 like) | 3 | -0.0997 | 46
CHRNA4 (cholinergic receptor nicotinic alpha 4 subunit) | 1 | 0.151 | 102
CHRNA4 (cholinergic receptor nicotinic alpha 4 subunit) | 2 | -0.173 | 84.8
CHRNA4 (cholinergic receptor nicotinic alpha 4 subunit) | 3 | 1.19 | 6.04
CHRNA4 (cholinergic receptor nicotinic alpha 4 subunit) | 4 | 0.509 | 52.3
NPY1R (neuropeptide Y receptor Y1) | 1 | -0.19 | 104
NPY1R (neuropeptide Y receptor Y1) | 2 | 0.538 | 55.6
NPY1R (neuropeptide Y receptor Y1) | 3 | 0.0508 | 70.2
NPY1R (neuropeptide Y receptor Y1) | 4 | -0.532 | 102
OR5V1 (olfactory receptor family 5 subfamily V member 1) | 1 | -0.276 | 80.5
OR5V1 (olfactory receptor family 5 subfamily V member 1) | 2 | -0.108 | 100
OR5V1 (olfactory receptor family 5 subfamily V member 1) | 3 | -0.347 | 78
OR5V1 (olfactory receptor family 5 subfamily V member 1) | 4 | -0.452 | 95.7
CYP27A1 (cytochrome P450 family 27 subfamily A member 1) | 1 | -0.14 | 77.2
CYP27A1 (cytochrome P450 family 27 subfamily A member 1) | 2 | -0.105 | 108
CYP27A1 (cytochrome P450 family 27 subfamily A member 1) | 3 | -0.258 | 59.4
CYP27A1 (cytochrome P450 family 27 subfamily A member 1) | 4 | -0.114 | 62.5
TGM1 (transglutaminase 1) | 1 | 0.365 | 67.8
TGM1 (transglutaminase 1) | 2 | -0.0356 | 61.9
TGM1 (transglutaminase 1) | 3 | -0.346 | 48.9
TGM1 (transglutaminase 1) | 4 | -0.0958 | 105
IL17B (interleukin 17B) | 1 | -0.421 | 89.5
IL17B (interleukin 17B) | 2 | -0.461 | 14
IL17B (interleukin 17B) | 3 | -0.237 | 102
IL17B (interleukin 17B) | 4 | 0.109 | 33.8
MYF5 (myogenic factor 5) | 1 | -0.278 | 104
MYF5 (myogenic factor 5) | 2 | 0 | 64.4
MYF5 (myogenic factor 5) | 3 | -0.0466 | 101
MYF5 (myogenic factor 5) | 4 | 0.00845 | 66.4
MAEA (macrophage erythroblast attacher, E3 ubiquitin ligase) | 1 | 0.156 | 62.7
MAEA (macrophage erythroblast attacher, E3 ubiquitin ligase) | 2 | -0.626 | 68.5
MAEA (macrophage erythroblast attacher, E3 ubiquitin ligase) | 3 | -0.0739 | 123
CA5B (carbonic anhydrase 5B) | 1 | -0.394 | 88.1
CA5B (carbonic anhydrase 5B) | 2 | -0.272 | 109
CA5B (carbonic anhydrase 5B) | 3 | -0.278 | 45.1
CA5B (carbonic anhydrase 5B) | 4 | -0.178 | 90.5
LRRC57 (leucine rich repeat containing 57) | 1 | -0.608 | 67.2
LRRC57 (leucine rich repeat containing 57) | 2 | -0.0845 | 89.1
LRRC57 (leucine rich repeat containing 57) | 3 | -0.798 | 72.5
REG3A (regenerating family member 3 alpha) | 1 | -0.388 | 98.6
REG3A (regenerating family member 3 alpha) | 2 | -0.0533 | 66
REG3A (regenerating family member 3 alpha) | 3 | 0.233 | 43.8
REG3A (regenerating family member 3 alpha) | 4 | -0.11 | 106
CYP2C18 (cytochrome P450 family 2 subfamily C member 18) | 1 | -0.307 | 103
CYP2C18 (cytochrome P450 family 2 subfamily C member 18) | 2 | -0.145 | 70.6
CYP2C18 (cytochrome P450 family 2 subfamily C member 18) | 3 | -0.178 | 103
CYP2C18 (cytochrome P450 family 2 subfamily C member 18) | 4 | -0.394 | 124

An excerpt from above, showing only “viability with camptothecin (% of control)”.
CYP27A1 (cytochrome P450 family 27 subfamily A member 1) #1: 77.2
CYP27A1 (cytochrome P450 family 27 subfamily A member 1) #2: 108
CYP27A1 (cytochrome P450 family 27 subfamily A member 1) #3: 59.4
